From paper doi:10.1101/2023.05.10.540157 (bioRxiv, 2023)
No constants are given. Whether binding was seen depends on the method and setting. In cells and extracts the contact can be indirect. Some entries that bind do so weakly or less than the wild type.

By UniProt entry, the sequences of proteins in these tests, tags left out.
UniProt P04150: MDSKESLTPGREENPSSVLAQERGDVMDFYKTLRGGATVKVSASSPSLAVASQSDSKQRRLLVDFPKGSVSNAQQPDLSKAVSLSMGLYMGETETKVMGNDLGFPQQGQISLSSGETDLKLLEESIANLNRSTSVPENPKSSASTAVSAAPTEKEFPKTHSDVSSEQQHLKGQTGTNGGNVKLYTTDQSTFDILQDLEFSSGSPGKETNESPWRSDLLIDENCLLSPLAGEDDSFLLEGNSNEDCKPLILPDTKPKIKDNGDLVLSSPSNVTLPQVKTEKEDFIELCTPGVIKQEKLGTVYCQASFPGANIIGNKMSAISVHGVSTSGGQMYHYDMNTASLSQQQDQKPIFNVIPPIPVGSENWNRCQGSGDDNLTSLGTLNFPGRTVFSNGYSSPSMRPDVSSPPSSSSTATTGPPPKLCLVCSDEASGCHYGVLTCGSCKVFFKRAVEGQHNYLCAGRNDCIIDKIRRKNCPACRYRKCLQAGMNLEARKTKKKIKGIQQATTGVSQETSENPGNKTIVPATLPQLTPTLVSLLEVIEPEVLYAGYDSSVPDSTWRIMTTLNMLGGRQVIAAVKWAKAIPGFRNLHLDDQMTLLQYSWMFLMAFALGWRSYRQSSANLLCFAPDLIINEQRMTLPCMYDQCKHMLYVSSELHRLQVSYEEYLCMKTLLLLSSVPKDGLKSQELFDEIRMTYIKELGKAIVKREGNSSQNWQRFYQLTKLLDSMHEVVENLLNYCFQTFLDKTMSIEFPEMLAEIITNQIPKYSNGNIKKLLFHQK
UniProt P08235: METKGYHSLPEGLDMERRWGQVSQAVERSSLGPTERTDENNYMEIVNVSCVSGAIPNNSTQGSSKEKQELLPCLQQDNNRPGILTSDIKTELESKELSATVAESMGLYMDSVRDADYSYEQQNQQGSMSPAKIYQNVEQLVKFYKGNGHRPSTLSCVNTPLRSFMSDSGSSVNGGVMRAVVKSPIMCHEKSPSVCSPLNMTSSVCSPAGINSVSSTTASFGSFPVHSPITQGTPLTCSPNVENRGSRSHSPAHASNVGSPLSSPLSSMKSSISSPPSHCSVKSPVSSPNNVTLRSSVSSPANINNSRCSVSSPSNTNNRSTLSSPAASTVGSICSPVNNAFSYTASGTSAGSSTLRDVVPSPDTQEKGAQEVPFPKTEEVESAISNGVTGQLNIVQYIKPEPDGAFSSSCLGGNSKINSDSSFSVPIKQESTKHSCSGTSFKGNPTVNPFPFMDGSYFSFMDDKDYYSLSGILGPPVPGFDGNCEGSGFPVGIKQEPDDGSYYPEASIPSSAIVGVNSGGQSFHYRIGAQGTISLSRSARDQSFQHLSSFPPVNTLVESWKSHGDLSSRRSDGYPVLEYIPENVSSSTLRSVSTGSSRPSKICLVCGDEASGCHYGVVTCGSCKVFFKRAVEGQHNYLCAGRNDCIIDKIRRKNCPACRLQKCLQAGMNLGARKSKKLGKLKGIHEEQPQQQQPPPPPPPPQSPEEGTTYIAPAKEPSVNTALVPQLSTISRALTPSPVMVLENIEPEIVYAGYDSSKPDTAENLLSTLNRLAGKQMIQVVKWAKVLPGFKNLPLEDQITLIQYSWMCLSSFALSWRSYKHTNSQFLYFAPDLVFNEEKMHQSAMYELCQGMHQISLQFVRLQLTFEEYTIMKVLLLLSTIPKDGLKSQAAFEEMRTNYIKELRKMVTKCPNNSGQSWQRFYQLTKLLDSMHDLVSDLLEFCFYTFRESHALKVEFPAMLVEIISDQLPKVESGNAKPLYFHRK

What was measured:
[1] = molecular target: endogenous glucocorticoid receptor (GR) (human (endogenous in MM1.S and OPM-2)) (UniProt P04150); assay: co-IP
[2] = molecular target: mineralocorticoid receptor (MR), NanoBiT fusion LgBiT-MR (UniProt P08235); assay: split reporter

binding [1]	binding [2]	Substance
binds	–	endogenous mineralocorticoid receptor (MR) (from UniProt P08235 1-984)
–	binds	mineralocorticoid receptor (MR), NanoBiT fusion LgBiT-MR (from UniProt P08235 1-984)
